Laboratory results published in the supplement of paper PMC12819154, “High-throughput peptide-centric local stability assay extends protein–ligand identification to membrane proteins, tissues and bacteria” (Nature Structural & Molecular Biology, 2025).
Some of the results follow. Small differences around the control level are noise.

The chains behind the UniProt entries cited, without tags or fusion partners. Where a name states a change or a piece, a line headed by the entry shows the natural chain unless it says otherwise.
UniProt Q6NZQ4, whole entry: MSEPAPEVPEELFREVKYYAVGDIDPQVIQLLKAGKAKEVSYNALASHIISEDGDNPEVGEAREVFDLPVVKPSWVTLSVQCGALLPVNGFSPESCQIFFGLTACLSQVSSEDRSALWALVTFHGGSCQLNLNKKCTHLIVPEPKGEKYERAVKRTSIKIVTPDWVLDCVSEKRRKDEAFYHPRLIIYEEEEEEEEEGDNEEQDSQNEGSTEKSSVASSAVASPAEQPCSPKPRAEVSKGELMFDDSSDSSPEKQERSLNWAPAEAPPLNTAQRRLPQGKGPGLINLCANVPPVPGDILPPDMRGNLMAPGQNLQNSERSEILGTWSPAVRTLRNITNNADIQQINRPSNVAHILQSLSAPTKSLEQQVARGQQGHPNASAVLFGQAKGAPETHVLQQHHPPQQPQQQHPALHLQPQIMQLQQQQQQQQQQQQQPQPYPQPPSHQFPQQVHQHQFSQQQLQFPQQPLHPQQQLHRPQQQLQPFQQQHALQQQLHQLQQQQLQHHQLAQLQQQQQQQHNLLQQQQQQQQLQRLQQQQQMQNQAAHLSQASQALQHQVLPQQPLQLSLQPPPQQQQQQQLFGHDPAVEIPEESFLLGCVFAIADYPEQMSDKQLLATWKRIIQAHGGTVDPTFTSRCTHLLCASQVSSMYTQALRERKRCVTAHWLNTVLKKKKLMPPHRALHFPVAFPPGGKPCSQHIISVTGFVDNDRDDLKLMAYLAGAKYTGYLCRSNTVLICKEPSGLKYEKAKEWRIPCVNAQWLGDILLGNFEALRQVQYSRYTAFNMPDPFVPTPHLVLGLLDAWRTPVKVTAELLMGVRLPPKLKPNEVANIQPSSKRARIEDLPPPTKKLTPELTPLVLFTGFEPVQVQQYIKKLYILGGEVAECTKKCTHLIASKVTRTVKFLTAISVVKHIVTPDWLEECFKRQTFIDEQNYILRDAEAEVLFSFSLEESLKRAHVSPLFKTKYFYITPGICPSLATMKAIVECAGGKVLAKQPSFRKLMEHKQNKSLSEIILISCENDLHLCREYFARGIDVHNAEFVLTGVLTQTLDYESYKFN
UniProt Q6QWF9: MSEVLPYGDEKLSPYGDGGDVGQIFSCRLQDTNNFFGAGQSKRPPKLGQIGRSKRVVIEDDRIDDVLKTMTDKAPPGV
UniProt Q6A028: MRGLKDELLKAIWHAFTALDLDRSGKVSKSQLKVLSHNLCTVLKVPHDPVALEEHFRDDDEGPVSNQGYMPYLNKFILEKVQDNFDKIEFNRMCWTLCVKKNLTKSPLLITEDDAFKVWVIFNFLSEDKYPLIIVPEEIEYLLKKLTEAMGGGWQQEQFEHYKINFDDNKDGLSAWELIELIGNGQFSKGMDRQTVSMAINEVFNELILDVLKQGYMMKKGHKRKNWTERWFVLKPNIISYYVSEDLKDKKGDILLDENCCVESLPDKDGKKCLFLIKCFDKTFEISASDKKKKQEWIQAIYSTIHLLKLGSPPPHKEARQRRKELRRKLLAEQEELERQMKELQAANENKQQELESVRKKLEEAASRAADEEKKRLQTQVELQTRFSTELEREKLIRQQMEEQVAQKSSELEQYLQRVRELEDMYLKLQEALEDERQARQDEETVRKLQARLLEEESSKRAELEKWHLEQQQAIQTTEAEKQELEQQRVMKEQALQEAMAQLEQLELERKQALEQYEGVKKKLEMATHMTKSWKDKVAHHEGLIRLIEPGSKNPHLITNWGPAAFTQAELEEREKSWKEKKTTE
UniProt Q6PGH0: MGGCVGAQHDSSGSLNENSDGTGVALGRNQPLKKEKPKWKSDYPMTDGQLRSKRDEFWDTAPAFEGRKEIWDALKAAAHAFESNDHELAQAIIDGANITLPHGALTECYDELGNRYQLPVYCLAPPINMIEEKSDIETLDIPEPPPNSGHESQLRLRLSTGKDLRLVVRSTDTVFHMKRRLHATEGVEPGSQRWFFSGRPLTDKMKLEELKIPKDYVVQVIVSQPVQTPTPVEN
UniProt Q6NXN1: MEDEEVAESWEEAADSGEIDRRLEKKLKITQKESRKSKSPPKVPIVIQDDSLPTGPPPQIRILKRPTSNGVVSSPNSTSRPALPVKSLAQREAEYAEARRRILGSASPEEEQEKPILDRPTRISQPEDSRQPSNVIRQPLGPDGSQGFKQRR
UniProt Q6P4T0: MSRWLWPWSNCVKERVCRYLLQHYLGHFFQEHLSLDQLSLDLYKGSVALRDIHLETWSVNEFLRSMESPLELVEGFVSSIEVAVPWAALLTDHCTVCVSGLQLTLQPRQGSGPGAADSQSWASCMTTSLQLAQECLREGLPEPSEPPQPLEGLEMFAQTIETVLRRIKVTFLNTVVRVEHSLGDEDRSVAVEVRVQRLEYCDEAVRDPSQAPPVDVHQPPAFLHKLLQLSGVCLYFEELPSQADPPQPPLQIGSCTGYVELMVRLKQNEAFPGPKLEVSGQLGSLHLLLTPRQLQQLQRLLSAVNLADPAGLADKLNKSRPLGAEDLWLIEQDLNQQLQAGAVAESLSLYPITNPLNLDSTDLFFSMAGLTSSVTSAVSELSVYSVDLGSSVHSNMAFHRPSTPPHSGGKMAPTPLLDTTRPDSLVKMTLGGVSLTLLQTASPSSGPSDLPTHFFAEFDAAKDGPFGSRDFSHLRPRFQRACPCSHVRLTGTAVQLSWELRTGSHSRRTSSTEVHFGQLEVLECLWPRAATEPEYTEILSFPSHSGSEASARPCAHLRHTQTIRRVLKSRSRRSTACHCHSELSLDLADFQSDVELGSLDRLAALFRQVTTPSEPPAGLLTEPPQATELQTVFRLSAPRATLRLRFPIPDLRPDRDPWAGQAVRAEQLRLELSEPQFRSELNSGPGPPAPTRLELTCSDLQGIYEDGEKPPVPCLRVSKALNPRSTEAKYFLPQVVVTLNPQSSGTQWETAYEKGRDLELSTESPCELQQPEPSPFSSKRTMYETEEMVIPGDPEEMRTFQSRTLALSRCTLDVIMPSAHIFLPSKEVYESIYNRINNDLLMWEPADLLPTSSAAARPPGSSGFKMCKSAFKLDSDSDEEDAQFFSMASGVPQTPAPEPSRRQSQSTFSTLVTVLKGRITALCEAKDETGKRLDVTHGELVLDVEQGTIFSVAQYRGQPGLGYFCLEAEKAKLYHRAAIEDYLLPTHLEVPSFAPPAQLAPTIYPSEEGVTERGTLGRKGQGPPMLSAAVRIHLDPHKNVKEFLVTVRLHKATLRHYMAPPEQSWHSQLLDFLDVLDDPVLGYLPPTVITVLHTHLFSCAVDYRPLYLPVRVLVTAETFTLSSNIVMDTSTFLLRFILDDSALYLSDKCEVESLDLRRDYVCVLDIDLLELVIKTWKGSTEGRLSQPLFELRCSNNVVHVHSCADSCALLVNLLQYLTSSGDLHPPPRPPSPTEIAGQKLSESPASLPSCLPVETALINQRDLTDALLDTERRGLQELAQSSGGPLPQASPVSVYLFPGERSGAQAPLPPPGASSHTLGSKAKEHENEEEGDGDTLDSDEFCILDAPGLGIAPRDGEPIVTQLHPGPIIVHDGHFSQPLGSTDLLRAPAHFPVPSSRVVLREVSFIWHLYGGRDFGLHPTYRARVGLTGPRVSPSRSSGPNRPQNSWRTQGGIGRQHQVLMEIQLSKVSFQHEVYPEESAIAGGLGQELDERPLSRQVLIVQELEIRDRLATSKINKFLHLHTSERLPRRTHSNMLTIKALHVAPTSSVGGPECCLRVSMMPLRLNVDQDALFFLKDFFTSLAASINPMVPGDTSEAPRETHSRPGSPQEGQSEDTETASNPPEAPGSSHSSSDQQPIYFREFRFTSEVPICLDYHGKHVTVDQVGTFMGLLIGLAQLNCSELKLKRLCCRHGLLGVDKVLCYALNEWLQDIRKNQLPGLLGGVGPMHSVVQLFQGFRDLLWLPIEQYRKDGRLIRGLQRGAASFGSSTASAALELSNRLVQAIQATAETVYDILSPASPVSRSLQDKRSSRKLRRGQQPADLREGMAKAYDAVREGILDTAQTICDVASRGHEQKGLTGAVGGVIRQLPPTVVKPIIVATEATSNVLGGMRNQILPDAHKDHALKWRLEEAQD
UniProt Q6P3Z3: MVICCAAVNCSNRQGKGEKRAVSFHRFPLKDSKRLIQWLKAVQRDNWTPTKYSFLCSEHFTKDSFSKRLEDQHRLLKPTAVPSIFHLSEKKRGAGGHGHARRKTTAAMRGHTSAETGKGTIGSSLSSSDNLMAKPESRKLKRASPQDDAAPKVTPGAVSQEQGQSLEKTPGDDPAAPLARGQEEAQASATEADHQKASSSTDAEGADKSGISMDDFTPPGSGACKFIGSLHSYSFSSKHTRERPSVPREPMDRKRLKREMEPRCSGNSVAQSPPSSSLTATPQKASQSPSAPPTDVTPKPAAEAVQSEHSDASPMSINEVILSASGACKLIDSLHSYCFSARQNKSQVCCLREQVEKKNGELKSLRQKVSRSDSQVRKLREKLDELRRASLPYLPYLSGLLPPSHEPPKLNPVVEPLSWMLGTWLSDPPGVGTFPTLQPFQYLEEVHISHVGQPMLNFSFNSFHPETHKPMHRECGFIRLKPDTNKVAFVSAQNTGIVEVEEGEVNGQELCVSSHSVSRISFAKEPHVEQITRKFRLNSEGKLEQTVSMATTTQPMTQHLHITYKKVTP
UniProt Q6PAT0: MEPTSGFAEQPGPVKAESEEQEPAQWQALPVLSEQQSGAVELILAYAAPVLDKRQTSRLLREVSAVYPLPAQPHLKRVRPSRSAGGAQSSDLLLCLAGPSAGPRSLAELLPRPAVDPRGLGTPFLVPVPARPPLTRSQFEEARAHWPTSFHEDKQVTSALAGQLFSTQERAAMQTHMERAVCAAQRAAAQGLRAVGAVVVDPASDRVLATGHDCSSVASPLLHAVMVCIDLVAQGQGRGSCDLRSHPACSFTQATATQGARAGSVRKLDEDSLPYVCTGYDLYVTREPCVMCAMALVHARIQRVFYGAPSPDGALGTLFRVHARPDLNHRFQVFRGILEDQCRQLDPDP
UniProt Q6KAQ7: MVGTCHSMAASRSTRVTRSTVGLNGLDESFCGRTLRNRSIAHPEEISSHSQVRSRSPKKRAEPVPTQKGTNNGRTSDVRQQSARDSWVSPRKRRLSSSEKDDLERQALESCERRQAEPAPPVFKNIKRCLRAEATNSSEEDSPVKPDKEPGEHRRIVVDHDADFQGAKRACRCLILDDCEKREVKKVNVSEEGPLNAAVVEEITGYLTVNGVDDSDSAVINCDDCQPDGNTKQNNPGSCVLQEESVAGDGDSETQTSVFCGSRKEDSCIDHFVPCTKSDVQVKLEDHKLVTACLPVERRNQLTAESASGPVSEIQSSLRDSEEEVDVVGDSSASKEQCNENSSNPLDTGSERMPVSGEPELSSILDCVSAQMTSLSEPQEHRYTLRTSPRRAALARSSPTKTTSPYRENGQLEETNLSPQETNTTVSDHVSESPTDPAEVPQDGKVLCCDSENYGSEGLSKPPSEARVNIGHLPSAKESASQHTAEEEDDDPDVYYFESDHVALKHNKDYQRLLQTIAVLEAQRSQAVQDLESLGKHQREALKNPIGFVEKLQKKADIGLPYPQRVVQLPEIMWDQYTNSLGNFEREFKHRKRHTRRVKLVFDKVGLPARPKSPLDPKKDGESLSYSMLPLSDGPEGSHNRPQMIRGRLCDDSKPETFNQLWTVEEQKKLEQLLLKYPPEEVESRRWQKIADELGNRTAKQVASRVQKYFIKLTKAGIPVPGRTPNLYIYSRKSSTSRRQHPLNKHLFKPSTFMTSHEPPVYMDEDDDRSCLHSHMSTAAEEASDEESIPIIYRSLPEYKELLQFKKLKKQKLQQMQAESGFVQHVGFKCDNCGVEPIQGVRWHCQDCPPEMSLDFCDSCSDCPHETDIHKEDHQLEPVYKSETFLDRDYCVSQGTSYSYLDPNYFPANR
UniProt Q6DFW0: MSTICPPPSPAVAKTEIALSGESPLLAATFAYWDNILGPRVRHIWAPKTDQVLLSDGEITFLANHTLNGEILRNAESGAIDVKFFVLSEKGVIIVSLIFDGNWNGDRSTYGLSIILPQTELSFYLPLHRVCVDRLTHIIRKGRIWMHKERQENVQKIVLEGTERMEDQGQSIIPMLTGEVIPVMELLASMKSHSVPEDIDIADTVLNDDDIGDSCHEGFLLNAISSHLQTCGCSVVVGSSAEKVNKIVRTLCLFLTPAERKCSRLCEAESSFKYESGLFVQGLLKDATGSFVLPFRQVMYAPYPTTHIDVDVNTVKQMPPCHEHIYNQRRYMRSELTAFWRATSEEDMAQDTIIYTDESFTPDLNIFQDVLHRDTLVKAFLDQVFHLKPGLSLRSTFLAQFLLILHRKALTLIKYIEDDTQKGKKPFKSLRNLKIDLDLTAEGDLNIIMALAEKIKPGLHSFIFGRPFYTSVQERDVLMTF

These targets were tested with CN[C@@H]1C[C@H]2O[C@@](C)([C@@H]1OC)n1c3ccccc3c3c4c(c5c6ccccc6n2c5c31)C(=O)NC4 [staurosporine] (assay: log2 fold change of tryptic peptide abundance, ligand vs vehicle (limited proteolysis) (log2 ratio); higher = more trypsin-susceptible (destabilized)). Conditions: ligand concentration: 20 uM; sample: mouse liver crude lysate; replicate design: treated separately.

Target | log2 fold change
UniProt Q6NZQ4 (peptide sequence: SEILGTWSPAVR, peptide start residue: 320) | 0.22
UniProt Q6QWF9 (peptide sequence: RVVIEDDRIDDVLK, peptide start residue: 55) | 0.419
UniProt Q6A028 (peptide sequence: KQALEQYEGVK, peptide start residue: 511) | -0.814
UniProt Q6PGH0 (peptide sequence: SDYPMTDGQLR, peptide start residue: 38) | 0.0246
UniProt Q6NXN1 (peptide sequence: RPTSNGVVSSPNSTSRPALPVK, peptide start residue: 65) | -0.175
UniProt Q6P4T0 (peptide sequence: NQILPDAHKDHALK, peptide start residue: 1893) | -0.299
UniProt Q6P3Z3 (peptide sequence: LLKPTAVPSIFHLSEK, peptide start residue: 75) | -0.534
UniProt Q6PAT0 (peptide sequence: GLGTPFLVPVPARPPLTR, peptide start residue: 119) | 0.144
UniProt Q6KAQ7 (peptide sequence: SIAHPEEISSHSQVR, peptide start residue: 39) | -0.255
UniProt Q6A037 (peptide sequence: KAQSHTEQSMVER, peptide start residue: 428) | -0.244
UniProt Q6DFW0 (peptide sequence: ERQENVQK, peptide start residue: 149) | 0.58
